Consider two molecules from PMC8476571.

Where a chain is given by its changes, count along the chain named. In names and notes the source's numbering stands. These are yes or no findings as the source states them, for the method shown. Some results given as binding are weak or reduced against the parent protein; the word gives no strength. Tags and fused reporters may be left off the sequences shown.

This experiment concerns the target T1, Lactococcus lactis Csm2 (LlCsm2) with N-terminal His6-tag (Lactococcus lactis) (UniProt L0CFW2).
T1 sequence: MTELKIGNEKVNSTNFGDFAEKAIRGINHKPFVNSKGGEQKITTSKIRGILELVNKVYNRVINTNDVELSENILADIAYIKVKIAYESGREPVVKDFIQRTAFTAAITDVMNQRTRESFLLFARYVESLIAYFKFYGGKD
Briefly: co-purification (Ni-NTA affinity, then size exclusion); all Csm subunits and the crRNA co-expressed in E. coli from one plasmid; complex isolated by the N-terminal His6-tag on LlCsm2; size-exclusion column in 20 mM HEPES pH 7.5, 200 mM NaCl, 5 mM MgCl2, 14 mM 2-mercaptoethanol; the complex is a ribonucleoprotein with crRNA. A general note: Size exclusion chromatography separates by hydrodynamic size, large species first.

B1: Lactococcus lactis Csm3 (LlCsm3) (enzyme, UniProt L0CEA3 1-214)
chain: MKLVIEGTIVLKTGMHIGGSSDFSAIGAVDSPVVRDTLTRLPLIPGSSLKGKMRYLLAKELNNGILLNEPNNDQDEILRLFGSSEKDKIRRARLKFNDIKLSNLAELETFNVSSTEVKFENTINRKTAVANPRQIERVIAGSKFDFEIFYNLDDIKEVEKDFENIKQGFDLLEFDYLGGHGTRGSGRIAFENLSVITAVGNFEKINTLNEILGA
For B1, the binding result is on record as “binds”.

B2: Lactococcus lactis Csm3 D30A (enzyme, UniProt L0CEA3 1-214)
chain: B1 chain with D30A
Take B2: the binding entry was “binds”.
